Assay results from article PMC4422300.
These are yes or no findings as the source states them, for the method shown. Binding seen in cells or lysates may run through a third protein. Some entries that bind do so weakly or less than the wild type.

Molecular target: T1, Checkpoint kinase Chk1 (human (endogenous in HCT116)) (UniProt O14757)
T1 sequence: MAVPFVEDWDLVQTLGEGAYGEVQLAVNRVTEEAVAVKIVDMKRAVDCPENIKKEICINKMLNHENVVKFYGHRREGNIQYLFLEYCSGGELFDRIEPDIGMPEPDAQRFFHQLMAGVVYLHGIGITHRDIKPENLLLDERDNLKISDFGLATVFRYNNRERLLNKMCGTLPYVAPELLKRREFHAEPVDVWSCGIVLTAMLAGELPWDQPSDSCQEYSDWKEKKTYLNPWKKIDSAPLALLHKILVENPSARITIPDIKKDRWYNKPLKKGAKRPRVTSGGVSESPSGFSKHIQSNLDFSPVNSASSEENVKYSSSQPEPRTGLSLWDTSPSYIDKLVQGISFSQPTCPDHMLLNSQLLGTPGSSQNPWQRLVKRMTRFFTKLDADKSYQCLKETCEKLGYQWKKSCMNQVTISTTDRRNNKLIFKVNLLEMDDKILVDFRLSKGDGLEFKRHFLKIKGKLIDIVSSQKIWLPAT
Assay: co-IP; mitochondrial extracts (± UV); immunoprecipitation with anti-Chk1 ab, immunoblot for BAK, PUMA, Bcl-xL

With Bcl-xL (from UniProt Q07817-1 1-233) the binding was “binds”.
